According to PubChem BioAssay AID330 (DTP/NCI, 2004):
The list does not hold the whole screen: it is rich in T/C values a quarter to a half above the control, in often repeated tests (any T/C) and in doses without a T/C. Further doses and runs are listed elsewhere. T/C gives the treated animals as a percentage of the vehicle group. Some entries give survivors of the animals treated and no T/C: the source holds a T/C of zero for them, seemingly a mark for toxic or unscored doses. Some survivor counts are full or nearly so, which does not show that the dose was tolerated: survival well below the control is almost never listed, so the zero probably covers shortened survival too. Counts of survivors are from the toxicity check (mostly the fifth day) where no day follows; animals may have died later. Schedules are NCI's codes, taken here to give the interval after Q, in days (D) or hours (H), and the number of doses after X. Some doses were run more than once; their values stand side by side, smallest first. For survival time, the PubChem record calls one and a half times the control and up active, and a quarter to a half above the control has no call in these data; cut-offs in other NCI protocols can differ.

Tested on: P388 leukemia ip, CD2F1 mice, survival T/C
Assay: NCI In Vivo Anticancer Drug Screen. Data for tumor model P388 Leukemia (intraperitoneal) in CD2F1 (CDF1) mice
Settings: T/C endpoint: median survival time, higher T/C = longer survival
[1] = dose: 50.0 mg/kg/injection, schedule: Q01DX001 (ip), vehicle: Klucel (hydroxypropylcellulose) (HPC)
[2] = dose: 100.0 mg/kg/injection, schedule: Q01DX001 (ip), vehicle: Klucel (hydroxypropylcellulose) (HPC)

`Cc1c(C(N)=O)no[n+]1[O-]` was tested. Which survivor count (dose: 240.0 mg/kg/injection, schedule: Q01DX005 (ip), vehicle: saline) did it give?
Its survivor count is 0 of 6.

For `O=C(O)c1n[nH]c2ccccc2c1=O`, which survivor count (dose: 50.0 mg/kg/injection, schedule: Q01DX009 (ip), vehicle: other) is on record?
The survivor count was 3 of 6.

What about the survivor count (dose: 100.0 mg/kg/injection, schedule: Q01DX009 (ip), vehicle: other) of the same molecule?
The survivor count was 2 of 6.

What about the survivor count (dose: 200.0 mg/kg/injection, schedule: Q01DX009 (ip), vehicle: other) of the same molecule?
Its survivor count is 1 of 6.

What about the survivor count (dose: 400.0 mg/kg/injection, schedule: Q01DX009 (ip), vehicle: other) of the same molecule?
The survivor count was 0 of 6.

Which survivor count (dose: 240.0 mg/kg/injection, schedule: Q01DX005 (ip), vehicle: saline with Tween-80) does the source give for `Cc1ccc2cccc(CC(=O)NN)c2c1` here?
Its survivor count is 3 of 6.

How did the survivor count (dose: 200.0 mg/kg/injection, schedule: Q01DX005 (ip), vehicle: saline) turn out when `CCCCCN(CCNc1cc(OC)cc2cccnc12)C(C)CC` (configuration not stated) was run?
Its survivor count is 1 of 5.

`CCN(CC)c1nc(Cl)nc(N(CC)CC)n1` was tested. Which survivor count (dose: 400.0 mg/kg/injection, schedule: Q01DX005 (ip), vehicle: saline with Tween-80) did it give?
Its survivor count is 3 of 6.

Which survivor count [1] does the source give for `COc1nc(N)c2ncn(C3CCCO3)c2n1` (configuration not stated) here?
Its survivor count is 1 of 6.

And the survivor count [2]?
The survivor count was 3 of 6.

What about the survivor count (dose: 200.0 mg/kg/injection, schedule: Q01DX001 (ip), vehicle: Klucel (hydroxypropylcellulose) (HPC)) of the same molecule?
The survivor count was 1 of 6.

What about the survivor count (dose: 400.0 mg/kg/injection, schedule: Q01DX001 (ip), vehicle: Klucel (hydroxypropylcellulose) (HPC)) of the same molecule?
The survivor count was 0 of 6.

How did the survivor count [1] turn out when `CC(=O)NC(C)CC1=CC(=O)C(C)=CC1=O` (configuration not stated) was run?
The survivor count was 0 of 6.

What about the survivor count [2] of the same molecule?
Its survivor count is 0 of 6.

How did the survivor count (dose: 400.0 mg/kg/injection, schedule: Q01DX009 (ip), vehicle: saline + alcohol) turn out when `O=C(CCc1ccc(O)cc1)c1c(O)cc(O)cc1O` was run?
Its survivor count is 4 of 6.

With `CN=c1s[se]c2ccccc12` as the molecule, how does the survivor count (dose: 50.0 mg/kg/injection, schedule: Q01DX009 (ip), vehicle: Klucel (hydroxypropylcellulose) (HPC)) read?
Its survivor count is 0 of 6 and 3 of 6.

And the survivor count (dose: 100.0 mg/kg/injection, schedule: Q01DX009 (ip), vehicle: Klucel (hydroxypropylcellulose) (HPC))?
The survivor count was 0 of 6.

And the survivor count (dose: 200.0 mg/kg/injection, schedule: Q01DX009 (ip), vehicle: Klucel (hydroxypropylcellulose) (HPC))?
The survivor count was 0 of 6.

Which results are given for `COC(=O)C1(C(=O)OC)CCCC2=NOC3CCC1C23` (configuration not stated)?
survivor count (dose: 60.0 mg/kg/injection, schedule: Q01DX005 (ip), vehicle: Klucel (hydroxypropylcellulose) (HPC)): 0 of 6; survivor count (dose: 120.0 mg/kg/injection, schedule: Q01DX005 (ip), vehicle: Klucel (hydroxypropylcellulose) (HPC)): 0 of 6; survivor count (dose: 240.0 mg/kg/injection, schedule: Q01DX005 (ip), vehicle: Klucel (hydroxypropylcellulose) (HPC)): 0 of 6

`COC1CCC(NC(=O)N(N=O)C2CCC(OC)CC2)CC1` (configuration not stated) was tested. Which survivor count (dose: 400.0 mg/kg/injection, schedule: Q01DX001 (ip), vehicle: distilled water + Tween-80) did it give?
The survivor count was 2 of 6.

For `COc1cccc2c1C(=O)c1c(O)c3c(c(O)c1C2=O)C[C@@](O)(/C(C)=N/NC(N)=S)C[C@@H]3OC1CC(N)C(O)C(C)O1` (some centres not stated), which T/C (dose: 100.0 mg/kg/injection, schedule: Q04DX003 (ip), vehicle: water) is on record?
Its T/C is 129 % of control.

What does the source list for `Nc1ccc(N=O)c(N)n1`?
survivor count (dose: 3.12 mg/kg/injection, schedule: Q01DX009 (ip), vehicle: saline): 6 of 6; survivor count (dose: 6.25 mg/kg/injection, schedule: Q01DX009 (ip), vehicle: saline): 4 of 6; survivor count (dose: 25.0 mg/kg/injection, schedule: Q01DX009 (ip), vehicle: saline): 6 of 6; survivor count (dose: 50.0 mg/kg/injection, schedule: Q01DX009 (ip), vehicle: saline with Tween-80): 3 of 6; survivor count (dose: 100.0 mg/kg/injection, schedule: Q01DX009 (ip), vehicle: saline with Tween-80): 2 of 6; survivor count (dose: 100.0 mg/kg/injection, schedule: Q01DX009 (ip), vehicle: saline): 0 of 6; survivor count (dose: 200.0 mg/kg/injection, schedule: Q01DX009 (ip), vehicle: saline with Tween-80): 0 of 6; survivor count (dose: 200.0 mg/kg/injection, schedule: Q01DX009 (ip), vehicle: saline): 0 of 6; survivor count (dose: 400.0 mg/kg/injection, schedule: Q01DX009 (ip), vehicle: saline with Tween-80): 0 of 6
